Laboratory results: PubChem BioAssay AID1259405 (NCATS, 2018)
Aim: 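Mouse-designed siRNAs used to find CHO productivity engineering targets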 (primary screen). Cell system: Chinese hamster CHO-K1 ovary cells with stable secreted eGFP expression. Reagents: single siRNA against mouse genes, 0.8 pmol siRNA per well (2 µl of 400 nM stock). Time to read-out: 3 days. Detection: 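Per-well intracellular GFP measured by laser scanning cytometry, plus viability from ATP luminescence, each relative to plate median of non-targeting control wells, in %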. Scale: GFP, % of control: higher = more GFP per well, higher productivity; viability (ATP), % of control: higher = more viable cells (more ATP). Active means: 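a knock-down is called active if GFP reaches 120% or more of non-targeting control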.
This is one part, drawn at random, of about 50,000 deposited reagents. About 4,000 of them (8%) count as active. 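Mouse siRNA library applied to hamster cells; one well for each siRNA.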 A number with no mark means an inactive call. The numbers tell different reagents against one gene apart.

Knock-down of Ear6 #1 gave: GFP, % of control 73.1; viability (ATP), % of control 48.
Against Ear6 #2, the values are GFP, % of control 69.3; viability (ATP), % of control 91.4.
Against Ear6 #3, the values are GFP, % of control 56.2; viability (ATP), % of control 61.9.
Depletion of Csf1r resulted in: GFP, % of control 87.8; viability (ATP), % of control 50.8.
Knock-down of Trpm2 #1 resulted in: GFP, % of control 67.5; viability (ATP), % of control 63.6.
Against Trpm2 #2, the values are GFP, % of control 76.1; viability (ATP), % of control 81.8.
After knock-down of Trpm2 #3 the results were GFP, % of control 66.1; viability (ATP), % of control 76.2.
With knock-down of Xk #1 the results were GFP, % of control 79.4; viability (ATP), % of control 103.
Against Xk #2, the entry reads GFP, % of control 102; viability (ATP), % of control 79.1.
Depletion of Xk #3 resulted in: GFP, % of control 95.2; viability (ATP), % of control 78.9.
With knock-down of Kif26b #1, the record shows GFP, % of control 71; viability (ATP), % of control 68.2.
Against Kif26b #2, the entry reads GFP, % of control 88.4; viability (ATP), % of control 73.2.
With knock-down of Kif26b #3, the record shows GFP, % of control 104; viability (ATP), % of control 82.7.
Knock-down of Kif26b #4 came out at: GFP, % of control 64.5; viability (ATP), % of control 66.9.
With knock-down of Kif26b #5, the screen gave GFP, % of control 60.9; viability (ATP), % of control 87.2.
Kif26b #6 gave GFP, % of control 136 (active); viability (ATP), % of control 50.7.

Records above whose target name starts with X or x (3):
Xk #1: GFP, % of control = 79.4; viability (ATP), % of control = 103
Xk #2: GFP, % of control = 102; viability (ATP), % of control = 79.1
Xk #3: GFP, % of control = 95.2; viability (ATP), % of control = 78.9

Continued:
Eva1b #1 scored GFP, % of control 60.4; viability (ATP), % of control 47.1.
Knock-down of Eva1b #2 came out at: GFP, % of control 60.7; viability (ATP), % of control 33.3.
Silencing of Eva1b #3 gave: GFP, % of control 58.2; viability (ATP), % of control 68.3.
For Ppp1r7 #1 the deposit lists GFP, % of control 106; viability (ATP), % of control 84.
Ppp1r7 #2 scored GFP, % of control 81.6; viability (ATP), % of control 81.6.
Knock-down of Ppp1r7 #3 resulted in: GFP, % of control 50; viability (ATP), % of control 68.5.
Silencing of Or9g4b #1 gave: GFP, % of control 101; viability (ATP), % of control 47.2.
Depletion of Or9g4b #2 gave: GFP, % of control 99.9; viability (ATP), % of control 107.
With knock-down of Or9g4b #3, the record shows GFP, % of control 75.1; viability (ATP), % of control 73.6.
For Trpt1 #1, the entry reads GFP, % of control 67.2; viability (ATP), % of control 48.4.
After knock-down of Trpt1 #2 the results were GFP, % of control 73; viability (ATP), % of control 66.8.
For Trpt1 #3 the deposit lists GFP, % of control 60.2; viability (ATP), % of control 72.7.
Or5an11 #1 scored GFP, % of control 47; viability (ATP), % of control 81.5.
Or5an11 #2 gave GFP, % of control 55; viability (ATP), % of control 65.9.
Or5an11 #3 gave GFP, % of control 34; viability (ATP), % of control 44.7.
Knock-down of Gtf2a1 #1 resulted in: GFP, % of control 84.7; viability (ATP), % of control 78.7.
Against Gtf2a1 #2, the values are GFP, % of control 138 (active); viability (ATP), % of control 83.4.
Against Dclk2 #1, the values are GFP, % of control 40; viability (ATP), % of control 53.1.
Depletion of Dclk2 #2 came out at: GFP, % of control 62.5; viability (ATP), % of control 54.9.
After knock-down of Gulo #1 the results were GFP, % of control 95.2; viability (ATP), % of control 86.6.
After knock-down of Gulo #2, the record shows GFP, % of control 95.1; viability (ATP), % of control 84.7.
Against Gulo #3 the deposit lists GFP, % of control 35.8; viability (ATP), % of control 51.1.
Silencing of Phldb1 #1 came out at: GFP, % of control 71.7; viability (ATP), % of control 52.4.
For Phldb1 #2, the values are GFP, % of control 104; viability (ATP), % of control 96.1.
Phldb1 #3 scored GFP, % of control 93.8; viability (ATP), % of control 133.
